No constants are given. Whether binding was seen depends on the method and setting. In cells and extracts the contact can be indirect. Some binding calls cover weakened binding; strength is not graded here.
Biological target: SIRT1 (human (endogenous in N/Tert-1, HFK and U2OS cells)) (UniProt Q96EB6)
Test: co-IP

Sequences of proteins named here, by UniProt entry; tags and fusion partners are left off.
UniProt Q96EB6: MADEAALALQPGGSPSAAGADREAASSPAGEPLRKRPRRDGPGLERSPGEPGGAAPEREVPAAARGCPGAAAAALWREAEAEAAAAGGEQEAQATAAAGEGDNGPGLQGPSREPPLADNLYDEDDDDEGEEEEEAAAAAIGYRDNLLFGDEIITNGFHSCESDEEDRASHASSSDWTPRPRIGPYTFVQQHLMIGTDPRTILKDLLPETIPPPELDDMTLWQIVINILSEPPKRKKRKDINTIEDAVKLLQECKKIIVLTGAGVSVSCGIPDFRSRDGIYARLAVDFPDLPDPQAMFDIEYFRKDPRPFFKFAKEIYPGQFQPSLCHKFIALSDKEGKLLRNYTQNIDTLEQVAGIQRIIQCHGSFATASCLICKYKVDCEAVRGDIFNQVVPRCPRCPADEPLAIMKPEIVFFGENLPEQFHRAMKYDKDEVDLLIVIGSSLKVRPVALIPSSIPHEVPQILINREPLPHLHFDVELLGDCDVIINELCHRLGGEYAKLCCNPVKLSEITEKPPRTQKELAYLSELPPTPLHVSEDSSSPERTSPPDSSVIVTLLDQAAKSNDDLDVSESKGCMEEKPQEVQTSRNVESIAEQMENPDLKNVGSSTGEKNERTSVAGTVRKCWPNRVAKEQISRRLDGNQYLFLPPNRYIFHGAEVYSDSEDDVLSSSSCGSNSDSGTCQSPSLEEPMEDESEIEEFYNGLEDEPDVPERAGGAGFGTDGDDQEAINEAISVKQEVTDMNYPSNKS
UniProt O96017: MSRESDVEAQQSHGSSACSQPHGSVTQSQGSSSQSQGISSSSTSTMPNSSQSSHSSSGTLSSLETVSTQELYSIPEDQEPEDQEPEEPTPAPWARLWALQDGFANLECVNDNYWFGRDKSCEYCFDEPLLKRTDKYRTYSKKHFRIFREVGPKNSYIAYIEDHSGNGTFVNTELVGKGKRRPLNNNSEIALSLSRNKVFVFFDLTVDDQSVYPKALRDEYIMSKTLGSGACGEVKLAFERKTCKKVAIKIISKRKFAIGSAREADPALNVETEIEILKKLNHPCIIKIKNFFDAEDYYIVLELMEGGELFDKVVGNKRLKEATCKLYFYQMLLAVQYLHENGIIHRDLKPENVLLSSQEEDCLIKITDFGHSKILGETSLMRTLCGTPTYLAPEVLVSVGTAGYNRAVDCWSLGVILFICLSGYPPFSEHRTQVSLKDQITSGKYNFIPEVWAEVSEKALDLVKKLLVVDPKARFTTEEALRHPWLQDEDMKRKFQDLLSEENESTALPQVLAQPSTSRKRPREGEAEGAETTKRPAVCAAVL

binding: binds
Substance: CHK2 (from UniProt O96017 1-543) (enzyme)

— paper PMC11237546
